Reference: PubChem BioAssay AID192 (DTP/NCI, 2004)
The list shows only some results of the screen, not a fair sample: it is rich in T/C values a quarter to a half above the control, in often repeated tests (any T/C) and in doses without a T/C. Further doses and runs are listed elsewhere. T/C is the treated group as % of the vehicle group. Some entries give survivors of the animals treated and no T/C: the source files T/C as zero there, which appears to mark a toxic dose or a test without result, not a measured value. Some doses without a T/C left all or most animals alive at the check, yet need not have been tolerated: the source hardly ever lists a survival T/C far under the control, and the zero likely stands for such cases as well. Survivors were counted at the toxicity check, usually on the fifth day, unless a day is given; later deaths do not show. Schedule codes are those of the source, taken here to give the interval after Q, in days (D) or hours (H), and the number of doses after X. For survival time, the PubChem record calls one and a half times the control and up active, and a quarter to a half above the control has no call in these data; cut-offs in other NCI protocols can differ.

Tested on: BDF1 mice, B16 melanoma ip, median survival T/C
Test: NCI In Vivo Anticancer Drug Screen. Data for tumor model B16 Melanoma (intraperitoneal) in B6D2F1 (BDF1) mice
Settings: T/C endpoint: median survival time, schedule: Q01DX009 (ip), higher T/C = longer survival
Method in brief: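 Vehicle-treated animals serve as the reference (C); treated animals (T) are scored for survival or tumor size after tumor transplantation.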

[1] = dose: 200.0 mg/kg/injection, vehicle: Klucel (hydroxypropylcellulose) (HPC)
[2] = dose: 100.0 mg/kg/injection, vehicle: Klucel (hydroxypropylcellulose) (HPC)
[3] = dose: 400.0 mg/kg/injection, vehicle: saline with Tween-80
[4] = dose: 5.0 mg/kg/injection, vehicle: saline

SMILES: OC1CCN2CCCc3cccc1c32 (centres undefined)
- survivor count (dose: 0.37 mg/kg/injection, vehicle: DMSO): 10 of 10
- survivor count (dose: 0.75 mg/kg/injection, vehicle: DMSO): 8 of 10
- survivor count (dose: 1.5 mg/kg/injection, vehicle: DMSO): 10 of 10
- survivor count (dose: 3.0 mg/kg/injection, vehicle: DMSO): 10 of 10
- survivor count (dose: 6.0 mg/kg/injection, vehicle: DMSO): 10 of 10

SMILES: CC1(O)C=CC(=O)C=C1
- survivor count (dose: 100.0 mg/kg/injection, vehicle: water): 0 of 10

SMILES: O=C(O)c1cc2oc3ccccc3c2cc1O
- survivor count [1]: 2 of 10

SMILES: CN(C)CCCC1(C#N)c2ccccc2CCc2ccccc21
- survivor count (dose: 50.0 mg/kg/injection, vehicle: saline): 10 of 10

SMILES: CC1(C)OCC(C2CCC3(C)C4=CCC5C(C)(C)C(O)CCC5(C)C4CCC23C)CC(O)C1O (centres undefined)
- survivor count (dose: 2.5 mg/kg/injection, vehicle: Klucel (hydroxypropylcellulose) (HPC)): 10 of 10

SMILES: COc1cccc(/C=c2\[nH]c(=O)/c(=C/c3cccc(OC)c3OC)[nH]c2=O)c1OC
- survivor count [2]: 10 of 10
- survivor count [1]: 10 of 10

SMILES: CCCCCCCCCCCC(=O)CC
- survivor count (dose: 400.0 mg/kg/injection, vehicle: other): 6 of 10

SMILES: CCCC1OC(=O)C(C)O1 (centres undefined)
- survivor count [1]: 9 of 9

SMILES: CCCN1COC(OCC)C(C)(C)C1 (centres undefined)
- survivor count [3]: 0 of 10

SMILES: Cc1ccc(NS(=O)(=O)c2ccccc2)cc1Cl
- survivor count [2]: 10 of 10

SMILES: S=C=NCC(Br)CBr (centres undefined)
- survivor count (dose: 25.0 mg/kg/injection, vehicle: Klucel (hydroxypropylcellulose) (HPC)): 7 of 10

SMILES: COc1cc([C@@H]2c3cc4c(cc3[C@@H](OC3OC5CO[C@@H](c6cccs6)OC5C(O)C3O)[C@H]3COC(=O)[C@H]23)OCO4)cc(OC)c1O (some centres undefined)
- T/C (dose: 0.25 mg/kg/injection, vehicle: saline): 135 % of control
- survivor count (dose: 4.0 mg/kg/injection, vehicle: clinical formulation): 6 of 6
- survivor count (dose: 4.0 mg/kg/injection, vehicle: saline): 6 of 6
- survivor count (dose: 4.0 mg/kg/injection, vehicle: water): 10 of 10

SMILES: C/C=C(\C)c1cc(=O)c2c(C)cc3c(c2o1)C(=O)c1c(O)c(C2CC(C)(N(C)C)C(OC(C)=O)C(C)O2)cc(C2CC(N(C)C)C(O)C(C)O2)c1C3=O (centres undefined)
- T/C (dose: 0.62 mg/kg/injection, vehicle: saline): 132 % of control
- survivor count (dose: 2.5 mg/kg/injection, vehicle: saline): 10 of 10
- T/C [4]: 128 % of control
- survivor count [4]: 10 of 10

SMILES: N#Cc1ccccc1C(C#N)c1ccc([N+](=O)[O-])cc1 (centres undefined)
- survivor count [3]: 6 of 10
- survivor count (dose: 600.0 mg/kg/injection, vehicle: saline with Tween-80): 3 of 10

SMILES: CC[C@@]1(O)C[C@H](OC2CC(N(C)C)C(O)C(C)O2)c2c(O)c3c(c(O)c2[C@H]1OC1CC(N(C)C)C(O)C(C)O1)C(=O)c1cccc(O)c1C3=O (some centres undefined)
- survivor count (dose: 125.0 micrograms/kg/injection, vehicle: Klucel (hydroxypropylcellulose) (HPC)): 10 of 10
- survivor count (dose: 250.0 micrograms/kg/injection, vehicle: Klucel (hydroxypropylcellulose) (HPC)): 10 of 10

SMILES: O=C(NC(CSC(=O)OCc1ccccc1)C(=O)Oc1ccc([N+](=O)[O-])cc1)OCc1ccccc1 (centres undefined)
- survivor count [2]: 9 of 10
